Assay results from US10519116B2, “Water-soluble pyrazole derivatives as corrosion inhibitors” (Ecolab USA Inc., priority 2015, dated 2019).
Some results were stated once for a whole list of compounds, not compound by compound.

Experiments:
[1] = Copper corrosion rate by linear polarization resistance measurements; settings: copper coupons, 5 ppm inhibitor, pH 7.0, 45° C.; for No FRC Corrosion Rate: absence of bleach, average over 24 hour period; for 1 ppm FRC Corrosion Rate: bleach added to keep FRC at 1 ppm
Procedure: The corrosion rate of copper in the presence of (1H-pyrazol-1-yl)methanol, (3,5-dimethyl-1H-pyrazol-1-yl)methanol, (3,5-dimethyl-1H-pyrazol-1-yl)(phenyl)methanol, 1-(3,5-dimethyl-1H-pyrazol-1-yl)ethan-1-ol, 2-(1H-pyrazol-1-yl)ethan-1-ol, 3-phenyl-1H-pyrazole, 4-chloro-3,5-dimethyl-1H-pyrazole, and 3,5-dimethylpyrazole was determined using linear polarization resistance measurements. In addition, the corrosion rate of copper in the presence of pyrazole, 1-ethyl-1H-pyrazole, and tolyltriazole was determined using linear polarization resistance measurements. (1H-Pyrazol-1-yl)methanol, (3,5-dimethyl-1H-pyrazol-1-yl)methanol, (3,5-dimethyl-1H-pyrazol-1-yl)(phenyl)methanol, 4-chloro-3,5-dimethyl-1H-pyrazole, and 1-(3,5-dimethyl-1H-pyrazol-1-yl)ethan-1-ol were prepared by Applicants. Pyrazole, 3,5-dimethylpyrazole, 2-(1H-pyrazol-1-yl)ethan-1-ol, and 1-ethyl-1H-pyrazole were purchased from TCI America. 3-Phenyl-1H-pyrazole and tolyltriazole were purchased from Sigma-Aldrich (St. Louis, Mo.).
For each experiment, cylindrical copper coupons pre-polished using SIC 600 paper and fitted on a Pine rotator were immersed in a solution of corrosion inhibitor. The test solution comprised 470 ppm calcium, 230 ppm magnesium, 590 ppm chloride, 260 ppm sulfate, and 100 ppm alkalinity, as CaCO3. The pH of the test water was maintained at 7.0 using carbon dioxide, and the water temperature was maintained at 45° C. throughout the experiment.
The copper samples were immersed in 1 liter electrochemical cells comprising a 5 ppm inhibitor solution, and the Rp (polarization resistance) was recorded over a 24 hour period. The analysis was conducted using the following testing conditions: Initial E: −0.02V; Final E: +0.02V; Scan rate: 0.5 mV/s; Sample period: 1 second; Repeat time: 15 minutes; Sample area: 5 cm^2; Density: 8.92 g/cm^3; Copper Eq. Weight: 63.54 g; and Initial delay: 30 seconds.
Next, the copper samples were exposed to 1 ppm FRC by adding a few drops of 4% bleach solution to the electrolyte solution. After the FRC reached 1 ppm, the copper samples were analyzed. Throughout the analysis, the bleach solution was added intermittently to maintain the FRC at 1 ppm. The Rp in the absence and presence of bleach was collected and analyzed, and the average corrosion rate was calculated and recorded in Table 1. Corrosion rates were calculated in mils per year (mpy). FIGS. 1-3 display data plots for compounds 1, 3, 5, 6, and 9.

[2] = Turbidity of 2% aqueous solutions at various pH levels (solubility); format: physicochemical; settings: 2 grams in 98 grams deionized water, HACH 2100Q turbidimeter
Procedure: Solutions comprising (1H-pyrazol-1-yl)methanol and 3,5-dimethylpyrazole at various pH levels were prepared by dissolving the corresponding pyrazole (2 grams) in deionized water (98 grams). The solutions were adjusted to the desired pH by adding dilute sulfuric acid or aqueous sodium hydroxide (1 N). The turbidity of each solution was measured using a HACH 2100Q Portable Turbidimeter.

Cc1cc(C)[nH]n1 [Compound 6, 3,5-dimethylpyrazole]
No FRC Corrosion Rate ([1]; listed as compound 6): less than 0.1 mpy | 1 ppm FRC Corrosion Rate ([1]; listed as compound 6): below 0.1 mpy | turbidity [2]: less than 7 NTU

Cc1cc(C)n(C(C)O)n1 (stereo not shown) [Compound 3, 1-(3,5-dimethyl-1H-pyrazol-1-yl)ethan-1-ol]
No FRC Corrosion Rate ([1]; listed as compound 3): less than 0.1 mpy | 1 ppm FRC Corrosion Rate ([1]; listed as compound 3): below 0.1 mpy

Cc1cc(C)n(C(O)c2ccccc2)n1 (stereo not shown) [Compound 2, (3,5-dimethyl-1H-pyrazol-1-yl)(phenyl)methanol]
No FRC Corrosion Rate ([1]; listed as compound 2): less than 0.1 mpy | 1 ppm FRC Corrosion Rate ([1]; listed as compound 2): below 0.1 mpy

OCCn1cccn1 [Compound 4, 2-(1H-pyrazol-1-yl)ethan-1-ol]
No FRC Corrosion Rate ([1]; listed as compound 4): less than 0.1 mpy

Cc1cc(C)n(CO)n1 [Compound 5, (3,5-dimethyl-1H-pyrazol-1-yl)-methanol]
No FRC Corrosion Rate ([1]; listed as compound 5): less than 0.1 mpy | 1 ppm FRC Corrosion Rate ([1]; listed as compound 5): below 0.1 mpy

OCn1cccn1 [Compound 1, (1H-pyrazol-1-yl)methanol]
No FRC Corrosion Rate ([1]; listed as compound 1): less than 0.1 mpy | 1 ppm FRC Corrosion Rate ([1]; listed as compound 1): below 0.1 mpy | turbidity [2]: less than 7 NTU
